Results taken from publication PMC7917558.

Chains of the proteins cited; added tags and fusions are not shown. Lines headed by an entry give the natural chain unless they say otherwise; changes in a name come on top.
UniProt Q965S0: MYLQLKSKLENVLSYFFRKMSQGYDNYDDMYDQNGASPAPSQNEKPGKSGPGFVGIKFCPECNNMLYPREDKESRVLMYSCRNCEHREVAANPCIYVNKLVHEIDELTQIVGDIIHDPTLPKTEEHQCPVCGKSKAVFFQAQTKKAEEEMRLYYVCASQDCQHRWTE
UniProt P34703: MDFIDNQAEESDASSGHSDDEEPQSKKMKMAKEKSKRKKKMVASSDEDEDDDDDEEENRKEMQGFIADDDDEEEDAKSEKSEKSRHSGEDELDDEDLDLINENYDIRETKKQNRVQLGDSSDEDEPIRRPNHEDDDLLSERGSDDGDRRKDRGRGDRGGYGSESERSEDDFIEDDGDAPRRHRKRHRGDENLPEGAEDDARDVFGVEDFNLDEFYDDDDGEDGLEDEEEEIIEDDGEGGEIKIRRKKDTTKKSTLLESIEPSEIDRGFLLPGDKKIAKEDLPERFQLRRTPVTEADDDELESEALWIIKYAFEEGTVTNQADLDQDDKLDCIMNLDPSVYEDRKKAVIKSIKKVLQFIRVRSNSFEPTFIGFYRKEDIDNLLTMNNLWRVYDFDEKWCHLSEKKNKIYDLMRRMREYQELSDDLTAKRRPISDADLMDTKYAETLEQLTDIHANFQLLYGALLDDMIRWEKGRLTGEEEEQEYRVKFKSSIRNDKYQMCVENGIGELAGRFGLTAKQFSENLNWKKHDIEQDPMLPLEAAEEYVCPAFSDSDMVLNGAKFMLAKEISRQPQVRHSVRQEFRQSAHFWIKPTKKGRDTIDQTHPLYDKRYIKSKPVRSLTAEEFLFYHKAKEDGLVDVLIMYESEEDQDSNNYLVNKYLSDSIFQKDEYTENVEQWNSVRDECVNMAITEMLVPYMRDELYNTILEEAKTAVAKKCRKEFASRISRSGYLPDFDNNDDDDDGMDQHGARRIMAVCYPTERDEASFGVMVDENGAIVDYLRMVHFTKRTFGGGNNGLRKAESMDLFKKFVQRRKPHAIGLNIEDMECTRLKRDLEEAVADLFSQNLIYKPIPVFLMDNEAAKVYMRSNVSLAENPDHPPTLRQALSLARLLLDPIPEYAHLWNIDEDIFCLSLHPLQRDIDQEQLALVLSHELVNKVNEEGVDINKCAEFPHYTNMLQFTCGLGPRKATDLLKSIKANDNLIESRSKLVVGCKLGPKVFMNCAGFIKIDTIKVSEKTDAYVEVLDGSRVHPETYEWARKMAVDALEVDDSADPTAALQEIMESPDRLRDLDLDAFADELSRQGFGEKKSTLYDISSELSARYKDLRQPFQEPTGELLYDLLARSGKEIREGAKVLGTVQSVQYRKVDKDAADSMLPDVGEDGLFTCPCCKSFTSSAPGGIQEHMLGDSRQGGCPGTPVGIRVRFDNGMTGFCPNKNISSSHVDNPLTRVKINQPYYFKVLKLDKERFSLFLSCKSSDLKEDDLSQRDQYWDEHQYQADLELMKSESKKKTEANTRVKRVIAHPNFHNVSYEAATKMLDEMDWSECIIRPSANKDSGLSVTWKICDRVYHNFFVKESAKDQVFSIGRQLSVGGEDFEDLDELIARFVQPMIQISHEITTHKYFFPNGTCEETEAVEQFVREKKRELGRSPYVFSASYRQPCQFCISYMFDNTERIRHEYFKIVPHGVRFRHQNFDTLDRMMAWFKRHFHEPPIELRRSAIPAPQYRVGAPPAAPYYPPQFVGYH
UniProt O01864: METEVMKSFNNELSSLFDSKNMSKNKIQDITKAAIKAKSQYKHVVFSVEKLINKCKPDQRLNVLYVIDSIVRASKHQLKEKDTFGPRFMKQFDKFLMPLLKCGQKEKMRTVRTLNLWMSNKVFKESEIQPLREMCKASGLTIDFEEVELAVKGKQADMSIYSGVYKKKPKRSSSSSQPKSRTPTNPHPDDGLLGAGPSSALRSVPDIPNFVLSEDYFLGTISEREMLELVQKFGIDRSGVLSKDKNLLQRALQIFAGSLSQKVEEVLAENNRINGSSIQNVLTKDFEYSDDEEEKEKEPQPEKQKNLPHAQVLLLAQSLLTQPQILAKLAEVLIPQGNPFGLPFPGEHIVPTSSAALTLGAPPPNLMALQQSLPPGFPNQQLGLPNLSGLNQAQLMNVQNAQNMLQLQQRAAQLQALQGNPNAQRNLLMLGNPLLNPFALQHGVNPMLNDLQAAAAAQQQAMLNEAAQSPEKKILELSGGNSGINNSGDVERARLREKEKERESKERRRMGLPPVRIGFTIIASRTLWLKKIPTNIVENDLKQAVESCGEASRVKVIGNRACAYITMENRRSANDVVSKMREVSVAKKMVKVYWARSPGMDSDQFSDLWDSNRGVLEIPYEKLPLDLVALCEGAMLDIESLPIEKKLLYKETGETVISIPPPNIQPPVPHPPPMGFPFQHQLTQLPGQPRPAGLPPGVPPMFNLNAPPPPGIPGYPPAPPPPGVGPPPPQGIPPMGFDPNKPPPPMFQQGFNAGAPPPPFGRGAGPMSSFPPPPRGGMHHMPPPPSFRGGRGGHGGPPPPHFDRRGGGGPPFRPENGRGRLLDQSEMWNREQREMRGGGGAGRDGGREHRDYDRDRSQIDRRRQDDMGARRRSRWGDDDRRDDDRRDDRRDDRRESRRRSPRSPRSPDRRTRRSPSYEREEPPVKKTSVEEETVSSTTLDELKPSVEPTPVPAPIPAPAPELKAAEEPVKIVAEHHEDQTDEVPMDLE
UniProt P16356: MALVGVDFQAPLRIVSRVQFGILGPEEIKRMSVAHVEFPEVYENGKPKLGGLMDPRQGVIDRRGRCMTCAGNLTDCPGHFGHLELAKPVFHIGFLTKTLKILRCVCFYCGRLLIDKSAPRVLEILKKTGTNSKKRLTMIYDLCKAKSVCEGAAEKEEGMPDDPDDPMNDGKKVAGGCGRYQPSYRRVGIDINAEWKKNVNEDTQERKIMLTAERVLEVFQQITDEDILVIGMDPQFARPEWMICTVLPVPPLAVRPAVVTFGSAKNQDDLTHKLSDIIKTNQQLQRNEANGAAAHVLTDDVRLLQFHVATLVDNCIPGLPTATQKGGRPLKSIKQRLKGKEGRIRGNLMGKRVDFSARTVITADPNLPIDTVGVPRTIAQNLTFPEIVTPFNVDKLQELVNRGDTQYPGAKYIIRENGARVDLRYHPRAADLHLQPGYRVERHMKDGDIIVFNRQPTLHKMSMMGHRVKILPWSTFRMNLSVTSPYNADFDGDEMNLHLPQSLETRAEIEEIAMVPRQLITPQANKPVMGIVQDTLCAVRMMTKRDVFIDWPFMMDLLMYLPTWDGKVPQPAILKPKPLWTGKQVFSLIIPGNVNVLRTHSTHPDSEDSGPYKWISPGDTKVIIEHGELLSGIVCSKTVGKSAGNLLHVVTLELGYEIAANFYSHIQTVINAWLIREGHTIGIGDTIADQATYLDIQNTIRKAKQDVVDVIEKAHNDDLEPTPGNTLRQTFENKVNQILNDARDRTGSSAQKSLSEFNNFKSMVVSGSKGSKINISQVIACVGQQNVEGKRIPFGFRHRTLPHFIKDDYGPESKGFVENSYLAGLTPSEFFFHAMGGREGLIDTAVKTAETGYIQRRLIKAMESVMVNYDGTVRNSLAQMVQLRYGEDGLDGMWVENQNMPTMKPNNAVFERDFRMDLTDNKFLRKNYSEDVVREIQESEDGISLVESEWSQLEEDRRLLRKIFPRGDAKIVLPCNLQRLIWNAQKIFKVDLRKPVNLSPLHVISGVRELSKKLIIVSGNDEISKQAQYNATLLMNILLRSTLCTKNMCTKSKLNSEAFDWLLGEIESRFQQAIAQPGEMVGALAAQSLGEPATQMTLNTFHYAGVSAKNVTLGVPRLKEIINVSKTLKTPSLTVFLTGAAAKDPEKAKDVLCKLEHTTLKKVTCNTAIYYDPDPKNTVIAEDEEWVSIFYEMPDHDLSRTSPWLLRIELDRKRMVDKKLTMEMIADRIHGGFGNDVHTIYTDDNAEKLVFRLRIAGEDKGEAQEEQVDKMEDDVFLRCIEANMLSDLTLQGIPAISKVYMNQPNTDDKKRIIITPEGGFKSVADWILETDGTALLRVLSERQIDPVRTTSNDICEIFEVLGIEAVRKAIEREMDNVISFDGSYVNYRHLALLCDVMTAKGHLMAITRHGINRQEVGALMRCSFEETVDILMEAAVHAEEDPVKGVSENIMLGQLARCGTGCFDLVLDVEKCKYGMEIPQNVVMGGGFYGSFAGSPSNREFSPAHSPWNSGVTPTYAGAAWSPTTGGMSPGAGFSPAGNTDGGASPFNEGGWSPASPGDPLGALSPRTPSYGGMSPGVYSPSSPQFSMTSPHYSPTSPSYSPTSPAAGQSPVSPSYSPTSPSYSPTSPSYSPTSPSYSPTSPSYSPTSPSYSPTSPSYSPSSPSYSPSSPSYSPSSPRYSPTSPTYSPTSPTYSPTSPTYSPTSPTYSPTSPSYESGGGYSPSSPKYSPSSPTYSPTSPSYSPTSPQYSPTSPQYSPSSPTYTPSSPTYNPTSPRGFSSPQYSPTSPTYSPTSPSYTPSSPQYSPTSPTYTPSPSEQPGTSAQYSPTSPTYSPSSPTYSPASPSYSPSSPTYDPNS
UniProt Q9N5K2: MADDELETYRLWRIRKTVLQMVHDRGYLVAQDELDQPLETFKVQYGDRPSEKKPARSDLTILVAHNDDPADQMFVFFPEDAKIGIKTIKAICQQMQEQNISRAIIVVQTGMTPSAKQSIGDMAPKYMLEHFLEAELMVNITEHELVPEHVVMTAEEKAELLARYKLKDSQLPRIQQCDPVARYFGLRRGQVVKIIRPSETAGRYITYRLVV
UniProt Q21338: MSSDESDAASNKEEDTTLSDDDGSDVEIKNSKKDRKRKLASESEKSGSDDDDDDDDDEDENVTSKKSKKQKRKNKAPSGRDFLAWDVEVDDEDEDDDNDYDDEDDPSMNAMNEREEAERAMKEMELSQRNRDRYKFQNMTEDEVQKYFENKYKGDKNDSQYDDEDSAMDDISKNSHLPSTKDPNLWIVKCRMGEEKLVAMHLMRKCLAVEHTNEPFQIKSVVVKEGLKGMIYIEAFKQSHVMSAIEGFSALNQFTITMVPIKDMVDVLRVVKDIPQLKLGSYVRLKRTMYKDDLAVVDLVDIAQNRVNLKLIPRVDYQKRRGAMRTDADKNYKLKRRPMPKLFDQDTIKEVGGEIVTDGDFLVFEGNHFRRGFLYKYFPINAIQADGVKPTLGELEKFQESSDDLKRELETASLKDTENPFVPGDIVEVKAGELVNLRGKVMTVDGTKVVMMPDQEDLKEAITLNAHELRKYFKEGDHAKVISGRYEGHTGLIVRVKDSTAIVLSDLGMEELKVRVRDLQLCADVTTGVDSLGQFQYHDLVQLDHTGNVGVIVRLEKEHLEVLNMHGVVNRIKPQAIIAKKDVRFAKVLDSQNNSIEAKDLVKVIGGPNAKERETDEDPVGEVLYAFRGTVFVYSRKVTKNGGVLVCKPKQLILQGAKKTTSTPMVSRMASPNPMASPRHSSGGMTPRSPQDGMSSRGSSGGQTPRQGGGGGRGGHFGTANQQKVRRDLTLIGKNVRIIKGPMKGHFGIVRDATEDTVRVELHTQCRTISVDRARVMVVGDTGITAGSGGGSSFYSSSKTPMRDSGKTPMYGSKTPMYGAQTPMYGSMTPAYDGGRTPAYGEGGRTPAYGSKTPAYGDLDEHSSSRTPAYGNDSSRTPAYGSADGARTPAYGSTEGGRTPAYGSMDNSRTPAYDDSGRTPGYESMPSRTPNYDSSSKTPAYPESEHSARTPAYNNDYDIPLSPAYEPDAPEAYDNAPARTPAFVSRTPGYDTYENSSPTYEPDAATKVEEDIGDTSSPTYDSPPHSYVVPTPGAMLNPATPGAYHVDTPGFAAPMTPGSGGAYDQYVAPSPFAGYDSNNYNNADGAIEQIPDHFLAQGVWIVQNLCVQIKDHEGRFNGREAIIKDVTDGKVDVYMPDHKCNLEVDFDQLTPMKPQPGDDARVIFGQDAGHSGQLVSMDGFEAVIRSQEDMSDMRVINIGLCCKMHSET

Biological target: RPB‐9::OLLAS (C. elegans) (UniProt Q965S0)
Test: affinity purification with mass spectrometry; RPB-9::ollas precipitated from lysate of young adult C. elegans with anti-ollas antibody and Protein A/G magnetic beads, 12 h at 4°C; 25 mM Tris-HCl pH 7.5, 150 mM NaCl, 1.5 mM MgCl2, 0.1% Triton X-100; untagged N2 as control; 4 technical replicates; label-free quantification, Welch's t-test

Row | binding | Molecule
1 | binds | EMB‐5 (from UniProt P34703 1-1521)
2 | binds | NRD‐1 (from UniProt O01864)
3 | binds | RPB‐1/AMA‐1 (from UniProt P16356 1-1856)
4 | binds | RPB‐5 (from UniProt Q9N5K2 1-211)
5 | binds | SPT‐5 (from UniProt Q21338 1-1208)
6 | binds | CTR‐9 (protein, UniProt Q03560 1-1150) MDESIDDVQETRTIAIPLKDSHEDEVIEINCSELPDGEEVLQILEAEEAKLSYWIEVALEYYRQDRVDLFMMILESAGSRAGLEYEGVKQDQMRALDILAAYWMTQGYREKAKDKKSDFFSKATVLFNTADKIAMYEWSHLTVRAWFYLFERDKSTNKYELADQQFNYVVKTNPKNVLPLIGKAVIAFNKKDYKTAIYYFRKAIRQCRHTIADLRVGIGHCFAKMGMMDKAKTAFERAMEIEPYNVSAMCGLGIILLNTYDHDSLKHAVSLFGRSYNLQTDHPVALIHLANHFFFKKEIERAWTLAWHAATYNDCDSIKAEAFYQMGRCRHAQGQFDGAYKYYYQARQANNGEHTLAHYGLGQMYIHRNEIEEAIKCFDTVHKRLPNNTDTMKILGSLYAHVQLNDPAQTAEARQKGRDVLGKYLAVENDDYEACIDLAQLLEATDPKRSLELYENAIDLLVTNESIQPQPEMLNNVGALYMSMKQYEKAEHHFKRAKERLEEQLNTDEGSLLLERRSAPEKSHLLTIRYNLALCLEHLCRTVEAEQMYKDIVKECPGYIDGYLRLGCITRDRHQVYESSLWLKQGVQFDQASPIVWTLIGNLHFAKNEWMPAQKKFEFILSKIFNNKIPDPYSLVALGNVWFEQLLNPSRKKEDEKKYIDRALQMYQKALKLQPKNMYAANGIGCVLAYKRNWNDARDVFSQVRESTSEFYDVWLNIAHVCMEREQWMAAVQMYSSAMKKFRKENDSTLQHYLAKAYYRANMLNEAKEALECAMLDQLDNTQLKFNYAIVLKKSAKEVLRGHKMTSEQVTAAIDDLKFADKIFQYISKNDDRQSSHTGMRISRTICAEEAKNCKDLLTQAKHKLAAAQTQDEEERRLMEKQEKEKIALQNKMIEEARAKEEAEKQKLEDMKNLRLSFIEMTKDVLRLPEIVEEKRRGGGGRKRRNDDGDEFVNDSSDAGNYDGEEGGEDGERRERRKKDKAAKKASRKKRERRDSGGPDSNRRDEKKRKRKEERDRKLQEKLSAKQSAKIKSRAFLSSSESSDDDKPKPAADSSDDEVDPRPPVDEFDSPTRTDSDSDRETTTKKKKKKAVVDSDEGSVSGSGSGSDNDDKPIIGGSDDDDDDKPAGGNSRDSDGSDAPKKKVIESDSD

Results are given in words; binding and its absence hold for the method and conditions named. Binding seen in cells or lysates may run through a third protein. Here binding means that the protein was enriched with, or labelled near, the bait; the list need not be complete.
